Assay results as given in paper PMC12736018, “Stereoselective Cytotoxicity of Enantiopure 3,3-Dichloro-γ-lactams: Correlating In Vitro Activity with In Vivo Tolerability” (Molecules, 2025).

Columns and labels:
Type in all cases: cell-based, human
A431 cells [1] = assay: MTT cell viability assay, A431; conditions: for SI (3T3/A431): IC50 (3T3)/IC50 (A431); for SI (HaCaT/A431): IC50 (HaCaT)/IC50 (A431)
Procedure: (§1) The murine Swiss albino fibroblast (3T3), the immortal human keratinocyte (HaCaT), the squamous cell carcinoma (A431), the human epithelial carcinoma (HeLa) and the human breast adenocarcinoma (MCF-7) cell lines were sourced from Celltec UB (Barcelona, Spain). All cells were maintained and grown in DMEM medium (4.5 g/L glucose) supplemented with 10% (v/v) FBS, 2 mM L-glutamine, 100 U/mL penicillin and 100 μg/mL streptomycin at 37 °C, 5% CO2. Cells were routinely cultured in 75 cm^2 culture flasks and were trypsinized using trypsin-EDTA when the cells reached approximately 80%. Cell concentration in the resulting suspension was assessed using the trypan blue assay, which enables direct discrimination between viable (unstained) and non-viable (blue) cells.
(§2) T3 and HaCaT cells (1 × 10^5 cells/mL), along with A431, HeLa, and MCF-7 cells (5 × 10^4 cells/mL), were cultured at defined seeding densities in the 60 central wells of a 96-well plate. Cells were first incubated for 24 h under standard incubator conditions (5% CO2, 37 °C). After this period, the culture medium was removed, and the cells were incubated for an additional 24 h with their corresponding compound solutions (1 mg/mL) previously diluted in a minimum amount of DMF (dimethylformamide) and then in DMEM medium supplemented with 5% FBS (100 µL) at the required concentration range (20 to 250 µg/mL). Cell viability following exposure to the lactam derivatives was evaluated using two complementary assays: NRU and MTT.
(§3) Only living cells can reduce the yellow tetrazolium salt 3-(4,5-dimethyl-2-thiazolyl)-2,5-diphenyltetrazolium bromide (MTT) to insoluble purple formazan crystals. After a 24 h incubation of the cells with their corresponding NPs, the medium was removed and 100 µL of MTT (Sigma-Aldrich, St. Louis, MO, USA) in PBS (5 mg/mL) diluted 1:10 in culture medium without phenol red and without FBS (Lonza, Verviers, Belgium) was added to the cells. After 3 h of incubation, the medium was removed. Thereafter, 100 µL of DMSO (Sigma-Aldrich, St. Louis, MO, USA) was added to each well to dissolve the purple formazan crystals. Agitation and absorbance measurements of the extracted solution were carried out under the same conditions described for the NRU assay. The effect of each treatment was then expressed as the percentage of tetrazolium salt reduction by viable cells relative to untreated controls.
(§4) The half-maximal inhibitory concentration (IC50) values for the different formulations, across cell lines and experimental endpoints, were obtained by fitting the concentration-dependent viability curves. […] These findings reflect the very low cytotoxicity of the compounds toward these cell lines.

HeLa cells [2] = assay: MTT cell viability assay, HeLa; conditions: for SI (3T3/HeLa): IC50 (3T3)/IC50 (HeLa); for SI (HaCaT/HeLa): IC50 (HaCaT)/IC50 (HeLa)
Procedure: as §1, §2, §3, §4

MCF-7 cells [3] = assay: MTT cell viability assay, MCF-7; conditions: for SI (3T3/MCF-7): IC50 (3T3)/IC50 (MCF-7); for SI (HaCaT/MCF-7): IC50 (HaCaT)/IC50 (MCF-7)
Procedure: as §1, §2, §3, §4

A431 cells [4] = assay: NRU cell viability assay, A431; conditions: for SI (3T3/A431): IC50 (3T3)/IC50 (A431); for SI (HaCaT/A431): IC50 (HaCaT)/IC50 (A431)
Procedure: as §1, §2
(§5) The neutral red uptake (NRU) assay is based on the accumulation of dye in the lysosomes of viable cells. After the cells were incubated for 24 h with the corresponding systems, the medium was removed, and the solutions were incubated with the NR dye (Sigma-Aldrich, St. Louis, MO, USA) solution (50 µg/mL) dissolved in the medium, without FBS and without phenol red (Lonza, Verviers, Belgium), for 3 h. Cells were then washed with sterile PBS, followed by the addition of 100 µL of a solution containing 50% absolute ethanol and 1% acetic acid in distilled water to extract the dye. To promote the total dissolution of the dye, plates were placed in a microtiter-plate shaker for 5 min at room temperature. The absorbance of the resulting solutions was measured at 550 nm (Bio-Rad 550 microplate reader, Bio-Rad California, Hercules, CA, USA). Finally, the effect of each treatment was calculated as the percentage of dye uptake by viable cells relative to the control cells (cells without any treatment). Finally, the effect of each treatment was calculated as the percentage of dye retained by viable cells compared with untreated control cells.
as §4

HeLa cells [5] = assay: NRU cell viability assay, HeLa; conditions: for SI (3T3/HeLa): IC50 (3T3)/IC50 (HeLa); for SI (HaCaT/HeLa): IC50 (HaCaT)/IC50 (HeLa)
Procedure: as §1, §2, §5, §4

MCF-7 cells [6] = assay: NRU cell viability assay, MCF-7; conditions: IC50 (3T3)/IC50 (MCF-7)
Procedure: as §1, §2
as §5, with “[…]” for “control cells.”

## C[C@H](c1ccccc1)N1C[C@@H](C)C(Cl)(Cl)C1=O [epi-4]
A431 cells [1]
  SI (3T3/A431): 0.82 ^epi-3
  SI (HaCaT/A431): >1.41 ^4
HeLa cells [2]
  SI (3T3/HeLa): <0.58
MCF-7 cells [3]
  SI (3T3/MCF-7): <0.58 ^3
A431 cells [4]
  SI (3T3/A431): 2.48 ^3,4,epi-3
  SI (HaCaT/A431): >4.05 ^a
A431 cells [4]; listed as compound epi-4
  SI (3T3/A431): 2.48
A431 cells [4]; listed as Compound epi-4
  SI (HaCaT/A431): > 4.05
HeLa cells [5]
  SI (3T3/HeLa): <0.61
MCF-7 cells [6]
  SI (3T3/MCF-7): <0.61

## C[C@@H]1CN([C@@H](C)c2ccccc2)C(=O)C1(Cl)Cl [Compound 3, (R)-3,3-dichloro-4-methyl-1-((S)-1-phenylethyl)pyrrolidin-2-one]
A431 cells [1]
  SI (3T3/A431): 0.54
  SI (HaCaT/A431): 2.19 ^epi-3,4,epi-4
HeLa cells [2]
  SI (3T3/HeLa): 0.16 ^epi-4
  SI (HaCaT/HeLa): 0.67
MCF-7 cells [3]
  SI (3T3/MCF-7): 0.16
  SI (HaCaT/MCF-7): 0.64
A431 cells [4]
  SI (3T3/A431): 1.08 ^a
  SI (HaCaT/A431): > 4.15 and >4.15 ^a,epi-3,4
HeLa cells [5]
  SI (3T3/HeLa): 0.41
  SI (HaCaT/HeLa): >1.56 ^a,epi-3,4
MCF-7 cells [6]
  SI (3T3/MCF-7): 1.08 ^a,epi-3,4,epi-4

## C[C@@H](c1ccccc1)N1C[C@H](C)C(Cl)(Cl)C1=O [epi-3]
A431 cells [1]
  SI (3T3/A431): 0.40
  SI (HaCaT/A431): >1.47 ^4
HeLa cells [2]
  SI (3T3/HeLa): <0.27 ^4
MCF-7 cells [3]
  SI (3T3/MCF-7): <0.27
A431 cells [4]
  SI (3T3/A431): 0.63 ^3,4
  SI (HaCaT/A431): >2.03 ^a,4,epi-4
HeLa cells [5]
  SI (3T3/HeLa): 0.36
  SI (HaCaT/HeLa): >1.17
MCF-7 cells [6]
  SI (3T3/MCF-7): <0.31 ^4,epi-4

## C[C@H](c1ccccc1)N1C[C@H](C)C(Cl)(Cl)C1=O [Compound 4]
A431 cells [1]
  SI (3T3/A431): 0.58
  SI (HaCaT/A431): 0.35
HeLa cells [2]
  SI (3T3/HeLa): 1.01 ^3,epi-4
  SI (HaCaT/HeLa): 0.61
MCF-7 cells [3]
  SI (3T3/MCF-7): 1.22 ^a,3,epi-3,epi-4
  SI (HaCaT/MCF-7): 0.74
A431 cells [4]
  SI (3T3/A431): 1.60 and 1.60 ^a,3
  SI (HaCaT/A431): >2.32 ^a,epi-4
HeLa cells [5]
  SI (3T3/HeLa): 2.23 and 2.23 ^a,3,epi-4
  SI (HaCaT/HeLa): >3.23 ^a,epi-3
MCF-7 cells [6]
  SI (3T3/MCF-7): <0.69

“And” between values parts separate entries of the source, which are not always exact repeats. Equal entries are not always repeated. Marks after values point to notes of the source that are not given here.
